# Source: patent US20040214255A1
# The chains behind the UniProt entries cited, without tags or fusion partners. Where a name states a change or a piece, a line headed by the entry shows the natural chain unless it says otherwise. Residues count along the entry.
# UniProt P42338, residues 1-300: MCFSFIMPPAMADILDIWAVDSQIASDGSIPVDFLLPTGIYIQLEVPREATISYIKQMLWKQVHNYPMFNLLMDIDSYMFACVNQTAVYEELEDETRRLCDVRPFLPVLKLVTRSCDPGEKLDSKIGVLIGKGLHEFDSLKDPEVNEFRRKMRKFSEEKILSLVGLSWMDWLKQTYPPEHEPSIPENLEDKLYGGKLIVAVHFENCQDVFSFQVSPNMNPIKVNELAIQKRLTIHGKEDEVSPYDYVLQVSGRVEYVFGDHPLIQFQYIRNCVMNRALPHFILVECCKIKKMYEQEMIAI
# UniProt P27986, residues 1-250: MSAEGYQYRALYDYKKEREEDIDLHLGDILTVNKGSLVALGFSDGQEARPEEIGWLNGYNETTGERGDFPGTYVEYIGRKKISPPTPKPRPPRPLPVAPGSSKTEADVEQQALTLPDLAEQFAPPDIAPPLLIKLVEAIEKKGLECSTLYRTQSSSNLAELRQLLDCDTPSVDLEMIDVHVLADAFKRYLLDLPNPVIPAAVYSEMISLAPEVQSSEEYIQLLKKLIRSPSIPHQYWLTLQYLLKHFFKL
# UniProt Q9UIQ6, residues 1-273: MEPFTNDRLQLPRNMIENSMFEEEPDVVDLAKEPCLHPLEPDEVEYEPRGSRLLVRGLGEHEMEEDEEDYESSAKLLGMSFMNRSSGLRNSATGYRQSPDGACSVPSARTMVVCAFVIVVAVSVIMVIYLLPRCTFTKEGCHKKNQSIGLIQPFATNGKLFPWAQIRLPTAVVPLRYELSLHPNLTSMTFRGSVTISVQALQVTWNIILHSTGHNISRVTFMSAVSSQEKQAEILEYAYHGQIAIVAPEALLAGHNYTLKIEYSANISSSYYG
# UniProt P05067: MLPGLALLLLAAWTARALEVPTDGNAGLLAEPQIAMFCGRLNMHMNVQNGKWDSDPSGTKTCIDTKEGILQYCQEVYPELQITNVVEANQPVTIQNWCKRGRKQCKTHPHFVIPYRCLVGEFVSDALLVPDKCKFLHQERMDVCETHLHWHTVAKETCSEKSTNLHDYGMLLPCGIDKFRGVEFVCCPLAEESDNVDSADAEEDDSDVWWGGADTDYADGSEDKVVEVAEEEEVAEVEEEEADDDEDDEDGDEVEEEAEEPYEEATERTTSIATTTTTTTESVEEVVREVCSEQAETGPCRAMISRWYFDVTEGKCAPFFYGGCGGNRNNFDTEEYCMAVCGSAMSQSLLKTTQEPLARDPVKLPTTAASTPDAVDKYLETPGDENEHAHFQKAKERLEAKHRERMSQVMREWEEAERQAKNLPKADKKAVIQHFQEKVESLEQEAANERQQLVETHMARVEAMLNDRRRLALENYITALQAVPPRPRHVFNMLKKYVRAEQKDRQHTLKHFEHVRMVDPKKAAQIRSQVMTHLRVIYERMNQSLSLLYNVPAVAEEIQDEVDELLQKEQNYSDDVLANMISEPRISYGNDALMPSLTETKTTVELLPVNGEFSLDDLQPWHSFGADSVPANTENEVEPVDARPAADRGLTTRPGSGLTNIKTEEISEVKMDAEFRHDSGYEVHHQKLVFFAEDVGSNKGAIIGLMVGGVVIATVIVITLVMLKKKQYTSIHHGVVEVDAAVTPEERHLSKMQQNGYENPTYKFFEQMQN
# UniProt P13521: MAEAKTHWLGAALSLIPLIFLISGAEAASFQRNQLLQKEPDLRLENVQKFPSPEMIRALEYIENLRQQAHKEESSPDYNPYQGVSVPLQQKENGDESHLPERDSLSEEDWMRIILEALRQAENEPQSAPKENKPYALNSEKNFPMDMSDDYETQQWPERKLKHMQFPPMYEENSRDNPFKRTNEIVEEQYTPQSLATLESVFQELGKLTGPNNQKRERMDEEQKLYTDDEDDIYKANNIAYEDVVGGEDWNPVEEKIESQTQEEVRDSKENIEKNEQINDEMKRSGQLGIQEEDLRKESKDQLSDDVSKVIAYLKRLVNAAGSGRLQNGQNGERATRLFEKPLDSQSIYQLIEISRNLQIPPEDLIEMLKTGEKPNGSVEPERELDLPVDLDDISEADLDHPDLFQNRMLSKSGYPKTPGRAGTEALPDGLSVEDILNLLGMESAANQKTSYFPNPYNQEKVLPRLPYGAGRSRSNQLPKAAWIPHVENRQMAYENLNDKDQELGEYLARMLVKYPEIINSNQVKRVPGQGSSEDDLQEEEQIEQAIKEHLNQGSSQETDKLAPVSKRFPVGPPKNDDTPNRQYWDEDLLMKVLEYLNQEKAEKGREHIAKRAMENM
# UniProt P23471: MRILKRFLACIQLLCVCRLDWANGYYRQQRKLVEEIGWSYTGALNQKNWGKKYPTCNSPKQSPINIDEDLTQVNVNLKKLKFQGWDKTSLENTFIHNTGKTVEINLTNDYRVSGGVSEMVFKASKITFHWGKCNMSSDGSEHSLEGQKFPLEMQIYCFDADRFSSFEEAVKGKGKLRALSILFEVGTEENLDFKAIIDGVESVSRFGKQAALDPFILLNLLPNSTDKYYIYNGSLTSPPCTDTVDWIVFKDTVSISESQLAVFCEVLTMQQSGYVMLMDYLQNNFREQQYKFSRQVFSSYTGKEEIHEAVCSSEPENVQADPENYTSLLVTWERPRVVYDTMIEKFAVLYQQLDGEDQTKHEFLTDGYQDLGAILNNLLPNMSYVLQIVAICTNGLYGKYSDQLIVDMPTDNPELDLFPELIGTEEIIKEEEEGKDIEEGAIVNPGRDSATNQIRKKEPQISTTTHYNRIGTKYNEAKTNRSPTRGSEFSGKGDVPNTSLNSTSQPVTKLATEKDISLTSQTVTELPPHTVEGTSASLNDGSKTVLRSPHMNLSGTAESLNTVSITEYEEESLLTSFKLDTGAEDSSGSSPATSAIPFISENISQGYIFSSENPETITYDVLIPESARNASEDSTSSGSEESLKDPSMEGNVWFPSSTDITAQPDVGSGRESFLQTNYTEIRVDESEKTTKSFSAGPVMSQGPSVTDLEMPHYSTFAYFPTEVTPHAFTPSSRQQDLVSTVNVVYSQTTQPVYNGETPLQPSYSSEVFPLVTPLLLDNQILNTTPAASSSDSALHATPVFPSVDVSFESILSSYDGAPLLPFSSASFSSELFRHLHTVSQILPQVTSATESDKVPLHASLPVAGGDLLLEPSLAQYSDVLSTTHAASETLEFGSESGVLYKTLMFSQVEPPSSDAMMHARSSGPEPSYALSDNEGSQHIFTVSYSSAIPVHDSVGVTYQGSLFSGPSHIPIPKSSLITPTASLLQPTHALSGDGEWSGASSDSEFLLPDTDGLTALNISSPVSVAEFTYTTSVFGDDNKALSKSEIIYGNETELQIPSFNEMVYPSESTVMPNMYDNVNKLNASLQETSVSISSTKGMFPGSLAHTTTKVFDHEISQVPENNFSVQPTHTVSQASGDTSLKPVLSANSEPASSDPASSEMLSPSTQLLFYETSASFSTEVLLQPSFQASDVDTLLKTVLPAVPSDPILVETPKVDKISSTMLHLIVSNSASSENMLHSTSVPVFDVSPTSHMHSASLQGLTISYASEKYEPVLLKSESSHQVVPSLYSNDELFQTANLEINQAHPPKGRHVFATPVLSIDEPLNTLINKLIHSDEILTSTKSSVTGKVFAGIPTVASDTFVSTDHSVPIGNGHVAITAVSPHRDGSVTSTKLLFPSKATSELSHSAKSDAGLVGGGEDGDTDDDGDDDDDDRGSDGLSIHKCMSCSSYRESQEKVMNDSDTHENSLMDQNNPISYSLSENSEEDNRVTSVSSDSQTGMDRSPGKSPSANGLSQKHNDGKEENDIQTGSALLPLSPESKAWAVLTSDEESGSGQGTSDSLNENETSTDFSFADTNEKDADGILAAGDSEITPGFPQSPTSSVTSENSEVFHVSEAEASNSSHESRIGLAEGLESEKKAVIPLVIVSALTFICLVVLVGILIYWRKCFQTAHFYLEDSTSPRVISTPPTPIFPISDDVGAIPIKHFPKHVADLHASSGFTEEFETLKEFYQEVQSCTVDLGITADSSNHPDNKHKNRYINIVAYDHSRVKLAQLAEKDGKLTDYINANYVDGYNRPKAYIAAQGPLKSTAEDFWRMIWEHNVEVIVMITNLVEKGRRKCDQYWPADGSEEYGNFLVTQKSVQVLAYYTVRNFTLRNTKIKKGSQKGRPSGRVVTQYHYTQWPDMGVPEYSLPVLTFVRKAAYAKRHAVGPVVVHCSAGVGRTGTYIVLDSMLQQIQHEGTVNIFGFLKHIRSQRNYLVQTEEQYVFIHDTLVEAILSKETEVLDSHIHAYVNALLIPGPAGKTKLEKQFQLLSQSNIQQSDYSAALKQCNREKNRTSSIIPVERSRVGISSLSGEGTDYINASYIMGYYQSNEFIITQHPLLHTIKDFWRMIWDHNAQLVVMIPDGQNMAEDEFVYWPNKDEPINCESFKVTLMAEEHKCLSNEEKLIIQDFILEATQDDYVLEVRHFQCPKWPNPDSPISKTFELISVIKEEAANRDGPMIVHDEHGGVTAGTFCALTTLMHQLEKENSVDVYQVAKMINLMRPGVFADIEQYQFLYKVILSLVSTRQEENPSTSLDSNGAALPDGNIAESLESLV
# Experiments:
# Experiment in all cases: yeast two-hybrid
# [1] = biological target: PI-3 kinase p110 subunit, amino acids 1-300 (human) (UniProt P42338)
# [2] = biological target: PI-3K85, amino acids 1-250 (human) (UniProt P27986)
# [3] = biological target: Insulin-Regulated Membrane-Spanning Aminopeptidase (IRAP), amino acids 1-273 (human) (UniProt Q9UIQ6)
substance,measurement,setting,value
"APP, amino acids 432-594 (from UniProt P05067)",binding,[1],binds
"Chromagranin, amino acids 2-322 (from UniProt P13521)",binding,[2],binds
"PTPZ, amino acids 1470-1829 (from UniProt P23471) (enzyme)",binding,[3],binds

# Results are given in words; binding and its absence hold for the method and conditions named. A result given as binding can be weak or reduced; the word gives no strength.
